# At least one compound was matched to its structure with a doubt left.
# Experiments:
# [1] = test system: cyclic AMP; test: Secretagogue-stimulated cyclic AMP accumulation in colonic crypt cell suspensions; assay type: cell-based; conditions: 0.1 mM Ca^2+ (CaSR inactive)
# [2] = test system: basolateral Cl^− entry into colonic crypt cells via NKCCl; test: Cell Cl^− influx measurements (MQAE fluorescence) in colonic crypts; assay type: cell-based, rat; conditions: basolateral addition; 0.1 mM calcium
# Protocol: Cl^− Measurements. Cell Cl^− influx measurements (Egan, M. E. et al. Nat. […] Molecular Probes]. After dye loading, crypts were incubated in a Cl^− free HEPES buffer until stable high baseline fluorescence intensity was achieved. Rates of cell Cl^− influx were monitored as rates of reductions in arbitrary MQAE fluorescent units (ΔAFU/min; Ex: 346 nm; EM: 460 nm).
# [3] = test system: rat colonic crypts; test: Absorptive fluid movement (netJv with secretion inhibited) in perfused rat colonic crypts; assay type: cell-based; conditions: bumetanide in basolateral bath plus NPPB in luminal perfusate
# [4] = test system: isolated rat colonic crypts; test: Net fluid movement (Jv) in in vitro perfused rat colonic crypts; assay type: cell-based; conditions: 0.1 mM Ca
smiles,measurement,setting,value
C=C[C@@]1(C)CC(=O)[C@]2(O)[C@@]3(C)[C@@H](O)CCC(C)(C)[C@@H]3[C@H](O)[C@H](OC(C)=O)[C@@]2(C)O1 [forskolin],cAMP production on exposure to secretagogue,[1],induce cAMP production
same,Basolateral Cl^− entry into colonic crypt cells,[2],stimulates basolateral Cl^− entry
same,Absorptive fluid movement,[3],inhibited
same,Net fluid movement (Jv) on exposure to secretagogue,[4],induced net fluid secretion
